The nature of the first series: general procedure: solution-phase peptide synthesis; EDCI/HOAt; EEDQ; ethyl chloroformate/NMM (mixed carbonate); Ugi four-component r. The settings on record: coupling step.
The substance “(S)-Benzyl 2-(2-(2-(2-(dimethylamino)benzamido)-N-methylacetamido)-3-methylbutanamido)benzoate” showed a step yield of 85%.
Turning to “Methyl 2-(2-(2-(2-(dimethylamino)benzamido)-N-propylacetamido)-3-methyl-butanamido)benzoate”, the step yield came to 55%.
The same measure, in the same setting: in the case of “Methyl 2-(2-(2-(2-(dimethylamino)benzamido)-N-methylacetamido)-3-methyl-butanamido)benzoate” it was 51%.
Take “Methyl 2-(2-(2-(2-(dimethylamino)benzamido)-N-phenethylacetamido)-3-methyl-butanamido)benzoate”: the step yield is on record as 52%.
Same read-out and setting: in the case of “Methyl 2-(2-(2-(2-(dimethylamino)benzamido)-N-(4-fluorobenzyl)acetamido)-3-methylbutanamido)benzoate” it was 58%; in that of “Methyl 2-(2-(N-(4-chlorobenzyl)-2-(2-(dimethylamino)benzamido)acetamido)-3-methylbutanamido)benzoate”, 70%; in that of “Methyl 2-(2-(N-benzyl-2-(2-(dimethylamino)benzamido)acetamido)-3-methyl-butanamido)benzoate”, 61%.

Still in this series, the particulars now being: late stage modification step.
In the case of “2-(2-(N-(4-Chlorobenzyl)-2-(2-(dimethylamino)benzamido)acetamido)-3-methyl-butanamido)benzoic acid”, the step yield was 91%.
The same measure, in the same setting: the result for “2-(2-(2-(2-(Dimethylamino)benzamido)-N-propylacetamido)-3-methylbutan-amido)benzoic acid” reads 83%; that for “2-(2-(2-(2-(Dimethylamino)benzamido)-N-phenethylacetamido)-3-methylbutan-amido)benzoic acid”, 81%.
Take “2-(2-(N-Benzyl-2-(2-(dimethylamino)benzamido)acetamido)-3-methylbutan-amido)benzoic acid”: the step yield is on record as 88%.
In turn, “2-(2-(2-(2-(Dimethylamino)benzamido)-N-(4-fluorobenzyl)acetamido)-3-methyl-butanamido)benzoic acid” showed a step yield of 90%.

The values are drawn from PMC3511043 (Beilstein Journal of Organic Chemistry, 2012).
